Data as given in PubChem BioAssay AID1259308 (NCATS, 2017)

Screen: 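Candidate targets for better recombinant protein yield in mammalian cells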 (primary screen)
System: human HEK293 embryonic kidney cells stably expressing firefly luciferase (HEK-CMV-Luc2-Hygro)
Reagents: single siRNA against human genes, 0.8 pmol siRNA per well
Timing: 72 h
Read-out: 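Reporter luminescence and viable-cell signal on separate replicate plates, given as percent of non-targeting control and median/MAD z-scores, plus per-cell luciferase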
Direction: total luciferase, z-score: higher = more reporter protein produced
Rule for the call: 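Active when the median/MAD z-score for overall luciferase is greater than 3; a gene was taken forward for validation with new siRNAs if at least two of its three siRNAs passed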
Calls: active = raised luciferase; inactive = no rise
The deposit covers about 59,000 reagents; this is a part drawn at random. About 1,510 of all reagents (2.6%) were called active. 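Calls use total luciferase alone and ignore viability, so some active siRNAs may act by altering cell number.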 A number with no mark means an inactive call. Reagents against one gene are numbered here. Not all columns of the deposit are shown.

With KLHL27 (kelch like family member 27) #1, how do the results read?
total luciferase, z-score: -0.0643

How did the screen score KLHL27 (kelch like family member 27) #2?
total luciferase, z-score: 0.644

How did the screen score KLHL27 (kelch like family member 27) #3?
total luciferase, z-score: -0.145

With ZBTB20 (zinc finger and BTB domain containing 20) #1, what does the deposit list?
total luciferase, z-score: -0.595

For ZBTB20 (zinc finger and BTB domain containing 20) #2, what does the deposit list?
total luciferase, z-score: -0.645

For ZBTB20 (zinc finger and BTB domain containing 20) #3, what does the deposit list?
total luciferase, z-score: 1.98

For EPRS1 (glutamyl-prolyl-tRNA synthetase 1) #1, what does the deposit list?
total luciferase, z-score: 0.595

What did the screen give for EPRS1 (glutamyl-prolyl-tRNA synthetase 1) #2?
total luciferase, z-score: -1.33

Which result is listed for EPRS1 (glutamyl-prolyl-tRNA synthetase 1) #3?
total luciferase, z-score: 0.798

How did the screen score GTF2H1 (general transcription factor IIH subunit 1) #1?
total luciferase, z-score: -0.22

How did the screen score GTF2H1 (general transcription factor IIH subunit 1) #2?
total luciferase, z-score: -1.04

For GTF2H1 (general transcription factor IIH subunit 1) #3, how do the results read?
total luciferase, z-score: -0.907

How did the screen score MOB1A (MOB kinase activator 1A) #1?
total luciferase, z-score: -1.3

Which result is listed for MOB1A (MOB kinase activator 1A) #2?
total luciferase, z-score: 0.382

For MOB1A (MOB kinase activator 1A) #3, what does the deposit list?
total luciferase, z-score: -0.571

Reformatted: results already given.
{"target":"EPRS1 (glutamyl-prolyl-tRNA synthetase 1)","siRNA no.":3,"total luciferase, z-score":0.798}
{"target":"GTF2H1 (general transcription factor IIH subunit 1)","siRNA no.":1,"total luciferase, z-score":-0.22}
{"target":"GTF2H1 (general transcription factor IIH subunit 1)","siRNA no.":2,"total luciferase, z-score":-1.04}

Continued:
With CCDC51 (coiled-coil domain containing 51) #1, what does the deposit list?
total luciferase, z-score: 0.909

With CCDC51 (coiled-coil domain containing 51) #2, what was measured?
total luciferase, z-score: 2.9

What did the screen give for CCDC51 (coiled-coil domain containing 51) #3?
total luciferase, z-score: 1.35

Which result is listed for ZNRF1 (zinc and ring finger 1) #1?
total luciferase, z-score: 1.14

What did the screen give for ZNRF1 (zinc and ring finger 1) #2?
total luciferase, z-score: -0.329

Which result is listed for ZNRF1 (zinc and ring finger 1) #3?
total luciferase, z-score: -0.267

How did the screen score SLC25A2 #1?
total luciferase, z-score: -1.84

What is on record for SLC25A2 #2?
total luciferase, z-score: 0.842

Which result is listed for SLC25A2 #3?
total luciferase, z-score: -0.315

What is on record for C9orf153 (chromosome 9 open reading frame 153) #1?
total luciferase, z-score: 0.434

How did the screen score C9orf153 (chromosome 9 open reading frame 153) #2?
total luciferase, z-score: -0.744

What is on record for C9orf153 (chromosome 9 open reading frame 153) #3?
total luciferase, z-score: 0.892

Which result is listed for PODN (podocan) #1?
total luciferase, z-score: 5.11 (active)

With PODN (podocan) #2, what does the deposit list?
total luciferase, z-score: -0.776

For PODN (podocan) #3, what does the deposit list?
total luciferase, z-score: 0.711

With ARL10 (ARF like GTPase 10) #1, what does the deposit list?
total luciferase, z-score: 4.25 (active)

Which result is listed for ARL10 (ARF like GTPase 10) #2?
total luciferase, z-score: 0.0424

With ARL10 (ARF like GTPase 10) #3, what was measured?
total luciferase, z-score: -0.113
